# The list shows a part of the results.
# The chains behind the UniProt entries cited, without tags or fusion partners. Where a name states a change or a piece, a line headed by the entry shows the natural chain unless it says otherwise.
# UniProt P25789: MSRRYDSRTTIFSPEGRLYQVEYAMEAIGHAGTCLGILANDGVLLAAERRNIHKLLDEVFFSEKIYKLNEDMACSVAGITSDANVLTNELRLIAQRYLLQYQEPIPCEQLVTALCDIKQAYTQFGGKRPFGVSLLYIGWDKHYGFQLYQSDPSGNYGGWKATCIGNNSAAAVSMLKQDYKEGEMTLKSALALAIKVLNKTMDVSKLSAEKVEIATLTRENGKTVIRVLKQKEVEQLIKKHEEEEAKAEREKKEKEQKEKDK
# UniProt P49720: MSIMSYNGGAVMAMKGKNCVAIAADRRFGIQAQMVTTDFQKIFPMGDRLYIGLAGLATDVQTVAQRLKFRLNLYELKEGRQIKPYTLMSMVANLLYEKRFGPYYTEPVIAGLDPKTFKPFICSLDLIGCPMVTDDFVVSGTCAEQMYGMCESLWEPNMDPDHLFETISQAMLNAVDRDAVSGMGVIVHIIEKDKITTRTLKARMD
# UniProt Q15008: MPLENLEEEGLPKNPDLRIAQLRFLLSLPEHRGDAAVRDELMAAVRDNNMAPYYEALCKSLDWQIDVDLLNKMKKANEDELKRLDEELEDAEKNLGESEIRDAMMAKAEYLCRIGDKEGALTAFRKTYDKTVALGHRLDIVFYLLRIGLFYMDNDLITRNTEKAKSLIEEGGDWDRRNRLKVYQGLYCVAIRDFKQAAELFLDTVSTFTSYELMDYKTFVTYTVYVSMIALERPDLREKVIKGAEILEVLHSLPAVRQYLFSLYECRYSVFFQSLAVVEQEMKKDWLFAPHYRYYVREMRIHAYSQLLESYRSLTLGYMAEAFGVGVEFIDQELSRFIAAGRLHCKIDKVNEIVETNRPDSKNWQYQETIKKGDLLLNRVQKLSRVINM
# UniProt P25788: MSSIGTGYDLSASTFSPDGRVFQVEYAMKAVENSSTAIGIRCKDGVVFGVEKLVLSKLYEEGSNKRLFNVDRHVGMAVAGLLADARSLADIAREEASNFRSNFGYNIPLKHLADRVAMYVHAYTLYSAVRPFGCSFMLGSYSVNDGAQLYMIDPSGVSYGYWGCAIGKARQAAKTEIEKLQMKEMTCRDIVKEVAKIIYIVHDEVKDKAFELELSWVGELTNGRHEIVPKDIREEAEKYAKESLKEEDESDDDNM
# UniProt Q14997: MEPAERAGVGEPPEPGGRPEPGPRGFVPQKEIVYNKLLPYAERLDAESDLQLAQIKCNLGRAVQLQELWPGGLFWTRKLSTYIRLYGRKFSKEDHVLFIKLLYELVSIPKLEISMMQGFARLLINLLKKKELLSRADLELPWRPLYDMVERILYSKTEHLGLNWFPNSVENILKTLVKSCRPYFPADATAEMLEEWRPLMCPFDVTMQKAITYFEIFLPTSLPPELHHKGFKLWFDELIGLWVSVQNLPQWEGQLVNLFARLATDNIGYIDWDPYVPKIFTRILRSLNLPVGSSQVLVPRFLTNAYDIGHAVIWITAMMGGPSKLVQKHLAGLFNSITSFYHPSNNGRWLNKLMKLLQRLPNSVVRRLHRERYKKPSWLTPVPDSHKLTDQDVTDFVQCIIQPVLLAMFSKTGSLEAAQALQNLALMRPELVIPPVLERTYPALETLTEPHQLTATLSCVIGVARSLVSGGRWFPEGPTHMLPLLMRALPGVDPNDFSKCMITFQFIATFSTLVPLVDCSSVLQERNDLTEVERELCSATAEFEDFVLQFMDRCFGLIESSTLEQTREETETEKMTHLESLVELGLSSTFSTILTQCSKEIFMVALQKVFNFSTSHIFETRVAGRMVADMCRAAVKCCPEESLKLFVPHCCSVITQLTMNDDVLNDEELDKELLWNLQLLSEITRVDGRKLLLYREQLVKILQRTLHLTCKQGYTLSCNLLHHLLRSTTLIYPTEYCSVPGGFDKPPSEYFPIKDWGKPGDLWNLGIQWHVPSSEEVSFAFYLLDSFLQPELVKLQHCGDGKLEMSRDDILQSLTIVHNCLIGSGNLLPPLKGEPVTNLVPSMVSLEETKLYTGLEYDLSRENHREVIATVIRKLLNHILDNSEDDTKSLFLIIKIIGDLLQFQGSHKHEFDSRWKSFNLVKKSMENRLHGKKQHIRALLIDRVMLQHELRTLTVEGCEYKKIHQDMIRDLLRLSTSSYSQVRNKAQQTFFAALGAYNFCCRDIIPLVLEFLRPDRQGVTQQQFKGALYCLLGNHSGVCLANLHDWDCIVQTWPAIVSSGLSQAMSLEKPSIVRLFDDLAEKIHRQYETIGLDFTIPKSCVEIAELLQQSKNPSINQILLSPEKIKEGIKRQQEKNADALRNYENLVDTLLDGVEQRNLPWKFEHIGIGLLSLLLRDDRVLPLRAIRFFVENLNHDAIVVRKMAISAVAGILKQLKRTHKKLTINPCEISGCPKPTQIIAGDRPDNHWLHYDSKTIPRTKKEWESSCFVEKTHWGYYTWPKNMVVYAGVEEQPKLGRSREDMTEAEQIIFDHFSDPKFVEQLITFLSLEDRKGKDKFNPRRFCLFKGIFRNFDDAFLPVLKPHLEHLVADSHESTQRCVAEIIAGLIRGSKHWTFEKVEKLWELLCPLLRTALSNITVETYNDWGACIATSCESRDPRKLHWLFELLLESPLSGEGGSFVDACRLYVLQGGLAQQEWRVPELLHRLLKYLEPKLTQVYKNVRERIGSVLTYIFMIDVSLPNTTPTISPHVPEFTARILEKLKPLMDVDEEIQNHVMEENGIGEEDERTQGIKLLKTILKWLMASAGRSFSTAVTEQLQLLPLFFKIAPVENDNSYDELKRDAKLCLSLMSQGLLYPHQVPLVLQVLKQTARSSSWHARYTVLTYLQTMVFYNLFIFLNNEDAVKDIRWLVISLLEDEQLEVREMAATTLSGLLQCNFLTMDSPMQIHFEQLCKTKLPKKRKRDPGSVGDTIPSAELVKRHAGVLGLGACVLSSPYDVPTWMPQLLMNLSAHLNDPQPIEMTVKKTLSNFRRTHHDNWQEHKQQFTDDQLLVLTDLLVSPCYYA
# UniProt Q8N0Z8: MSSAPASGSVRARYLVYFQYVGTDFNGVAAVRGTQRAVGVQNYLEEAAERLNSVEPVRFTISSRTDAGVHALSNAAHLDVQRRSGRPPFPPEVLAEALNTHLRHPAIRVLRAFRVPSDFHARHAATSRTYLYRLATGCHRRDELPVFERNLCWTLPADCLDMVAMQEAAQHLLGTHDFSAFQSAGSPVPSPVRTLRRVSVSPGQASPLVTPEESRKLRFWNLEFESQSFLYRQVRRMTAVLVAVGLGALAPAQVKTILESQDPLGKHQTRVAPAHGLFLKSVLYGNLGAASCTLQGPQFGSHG
# UniProt Q9BZE2: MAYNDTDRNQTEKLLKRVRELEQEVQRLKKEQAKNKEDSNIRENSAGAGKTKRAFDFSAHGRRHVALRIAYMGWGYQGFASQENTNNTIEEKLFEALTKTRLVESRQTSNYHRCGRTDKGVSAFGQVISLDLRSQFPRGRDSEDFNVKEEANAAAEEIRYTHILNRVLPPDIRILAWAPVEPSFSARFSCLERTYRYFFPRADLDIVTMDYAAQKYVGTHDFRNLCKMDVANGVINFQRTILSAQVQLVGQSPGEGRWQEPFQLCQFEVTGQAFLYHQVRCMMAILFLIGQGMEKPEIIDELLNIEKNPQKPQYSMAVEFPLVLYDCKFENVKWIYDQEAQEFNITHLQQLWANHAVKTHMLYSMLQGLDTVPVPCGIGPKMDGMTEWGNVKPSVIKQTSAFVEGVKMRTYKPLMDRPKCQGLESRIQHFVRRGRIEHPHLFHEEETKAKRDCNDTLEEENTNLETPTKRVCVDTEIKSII
# UniProt Q8WXF1: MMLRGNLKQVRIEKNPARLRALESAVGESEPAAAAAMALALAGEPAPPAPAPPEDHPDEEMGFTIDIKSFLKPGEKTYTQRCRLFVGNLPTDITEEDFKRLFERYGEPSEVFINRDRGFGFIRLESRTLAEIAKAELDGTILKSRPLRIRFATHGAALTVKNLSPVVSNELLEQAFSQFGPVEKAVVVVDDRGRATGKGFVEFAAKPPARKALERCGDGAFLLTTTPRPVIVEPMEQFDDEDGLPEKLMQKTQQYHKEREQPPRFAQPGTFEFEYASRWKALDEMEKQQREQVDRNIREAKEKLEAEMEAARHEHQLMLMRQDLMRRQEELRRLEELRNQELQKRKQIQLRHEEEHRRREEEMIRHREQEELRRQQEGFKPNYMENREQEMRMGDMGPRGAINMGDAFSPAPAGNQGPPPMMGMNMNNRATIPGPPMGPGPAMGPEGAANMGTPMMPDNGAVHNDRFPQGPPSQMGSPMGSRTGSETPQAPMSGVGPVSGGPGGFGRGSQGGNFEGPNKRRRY
# UniProt O75365, whole entry, looked up: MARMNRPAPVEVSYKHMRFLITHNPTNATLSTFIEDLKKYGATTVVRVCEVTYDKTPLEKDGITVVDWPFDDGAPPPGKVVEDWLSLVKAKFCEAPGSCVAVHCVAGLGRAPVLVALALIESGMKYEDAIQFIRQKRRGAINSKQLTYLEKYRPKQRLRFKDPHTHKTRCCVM
# UniProt Q99460, whole entry, looked up: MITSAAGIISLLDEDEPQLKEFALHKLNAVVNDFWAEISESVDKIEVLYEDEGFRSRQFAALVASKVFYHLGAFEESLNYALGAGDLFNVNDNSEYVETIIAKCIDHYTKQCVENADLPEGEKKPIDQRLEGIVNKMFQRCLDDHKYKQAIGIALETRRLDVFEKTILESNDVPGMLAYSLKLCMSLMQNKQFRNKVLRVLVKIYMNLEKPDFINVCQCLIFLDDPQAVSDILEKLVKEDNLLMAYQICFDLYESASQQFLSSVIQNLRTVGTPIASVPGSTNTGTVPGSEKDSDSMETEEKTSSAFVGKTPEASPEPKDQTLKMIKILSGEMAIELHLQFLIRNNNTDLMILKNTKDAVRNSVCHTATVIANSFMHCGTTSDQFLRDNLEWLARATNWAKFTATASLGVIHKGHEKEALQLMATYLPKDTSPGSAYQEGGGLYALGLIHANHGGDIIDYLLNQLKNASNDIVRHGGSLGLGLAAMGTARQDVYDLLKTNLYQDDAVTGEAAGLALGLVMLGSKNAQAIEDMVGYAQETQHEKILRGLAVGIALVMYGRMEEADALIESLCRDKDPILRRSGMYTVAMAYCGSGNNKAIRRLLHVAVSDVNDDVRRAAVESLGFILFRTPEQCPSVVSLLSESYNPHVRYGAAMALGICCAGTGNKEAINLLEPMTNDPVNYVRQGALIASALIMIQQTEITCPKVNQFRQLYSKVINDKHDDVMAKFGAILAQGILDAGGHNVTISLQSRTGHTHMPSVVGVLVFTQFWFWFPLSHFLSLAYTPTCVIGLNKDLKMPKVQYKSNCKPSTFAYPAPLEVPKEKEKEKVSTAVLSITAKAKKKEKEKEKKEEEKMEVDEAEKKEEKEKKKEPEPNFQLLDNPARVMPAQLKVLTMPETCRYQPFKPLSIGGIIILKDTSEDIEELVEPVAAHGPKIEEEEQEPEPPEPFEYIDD
# UniProt Q14289, whole entry, looked up: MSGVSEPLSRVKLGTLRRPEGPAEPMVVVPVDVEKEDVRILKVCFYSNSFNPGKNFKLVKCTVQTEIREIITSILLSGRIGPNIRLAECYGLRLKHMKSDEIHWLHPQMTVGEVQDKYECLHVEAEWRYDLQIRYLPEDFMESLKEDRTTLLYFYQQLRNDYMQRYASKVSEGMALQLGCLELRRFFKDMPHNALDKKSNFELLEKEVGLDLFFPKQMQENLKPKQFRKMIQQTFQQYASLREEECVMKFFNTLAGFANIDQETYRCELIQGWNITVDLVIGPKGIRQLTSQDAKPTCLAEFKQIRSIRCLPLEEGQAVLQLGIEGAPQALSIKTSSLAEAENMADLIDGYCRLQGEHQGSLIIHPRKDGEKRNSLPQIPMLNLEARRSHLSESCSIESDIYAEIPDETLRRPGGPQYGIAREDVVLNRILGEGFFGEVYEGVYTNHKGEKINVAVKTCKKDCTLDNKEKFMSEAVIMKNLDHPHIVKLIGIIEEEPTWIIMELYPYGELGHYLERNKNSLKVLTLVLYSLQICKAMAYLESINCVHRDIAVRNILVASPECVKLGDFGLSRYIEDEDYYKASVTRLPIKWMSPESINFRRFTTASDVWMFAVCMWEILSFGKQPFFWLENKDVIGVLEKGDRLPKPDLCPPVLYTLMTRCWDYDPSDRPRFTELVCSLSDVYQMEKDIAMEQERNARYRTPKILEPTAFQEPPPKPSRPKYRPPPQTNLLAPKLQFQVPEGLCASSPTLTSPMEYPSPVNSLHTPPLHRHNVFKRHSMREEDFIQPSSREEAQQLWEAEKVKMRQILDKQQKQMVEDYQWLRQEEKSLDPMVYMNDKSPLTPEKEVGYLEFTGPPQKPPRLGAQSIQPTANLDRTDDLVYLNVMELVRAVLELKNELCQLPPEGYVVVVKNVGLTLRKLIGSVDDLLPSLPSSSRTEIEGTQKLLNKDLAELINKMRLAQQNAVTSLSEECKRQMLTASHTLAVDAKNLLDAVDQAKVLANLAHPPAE
# UniProt Q9Y3E5: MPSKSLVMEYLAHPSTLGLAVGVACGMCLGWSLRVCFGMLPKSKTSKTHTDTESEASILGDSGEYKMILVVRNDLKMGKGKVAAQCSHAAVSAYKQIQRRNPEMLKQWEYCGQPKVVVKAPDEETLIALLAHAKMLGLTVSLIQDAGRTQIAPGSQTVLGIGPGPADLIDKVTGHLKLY
# Experiments:
# Test in all cases: log2 fold change, soluble protein after heating vs DMSO (PISA); higher = thermal stabilisation; K562 lysate, 10 uM; active = over 0.2 and 3.5 SD of the protein, either way, in both replicates (recomputed)
# vemurafenib = compound: CCCS(=O)(=O)Nc1ccc(F)c(C(=O)c2c[nH]c3ncc(-c4ccc(Cl)cc4)cc23)c1F [vemurafenib]
# Summary of the method: (§1)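 Following dounce homogenisation of K562 pellets in PBS pH 7.4 with 1 mM MgCl2, crude extract at 1 mg/mL protein was incubated for 30 min with 10 μM compound. Aliquots were then heated for 3 min over 48°C-58°C and pooled, NP-40 was added to 0.5% at 4°C, and soluble protein was recovered as the supernatant at 21,000xg for 90 min. Channel-sum-equalised TMTpro 16plex LC-MS/MS quantified this protein. Each value, from duplicates, is a log-two fold change in thermal stability relative to solvent controls.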
# [1] = compound: CCCS(=O)(=O)Nc1ccc(F)c(C(=O)c2c[nH]c3ncc(Cl)cc23)c1F
# Summary of the method: as §1
# barasertib = compound: CCN(CCCOc1ccc2c(Nc3cc(CC(=O)Nc4cccc(F)c4)[nH]n3)ncnc2c1)CCOP(=O)(O)O [barasertib]
# Summary of the method: as §1
# [2] = compound: CC[C@@H]1C(=O)N(C)c2cnc(Nc3ccc(C(=O)NC4CCN(C)CC4)cc3OC)nc2N1C1CCCC1
# Summary of the method: as §1
# volasertib = compound: CC[C@@H]1C(=O)N(C)c2cnc(Nc3ccc(C(=O)N[C@H]4CC[C@H](N5CCN(CC6CC6)CC5)CC4)cc3OC)nc2N1C(C)C [volasertib]
# Summary of the method: as §1
# [3] = compound: CCn1c(C(=O)N(C2CC2)C2CC2)cc2c3c(ncn3C)c(Nc3cc(C)n(C)n3)nc21
# Summary of the method: as §1
# [4] = compound: CCn1cc(-c2ccnc3[nH]c(-c4cccc(CN(C)C)c4)cc23)c(-c2ccc(NC(=O)N(C)C)cc2)n1
# Summary of the method: as §1
# [5] = compound: CN1CCC(CNc2ccc3ncc(-c4cccc(OC(F)(F)F)c4)n3n2)CC1
# Summary of the method: as §1
# saracatinib = compound: CN1CCN(CCOc2cc(OC3CCOCC3)c3c(Nc4c(Cl)ccc5c4OCO5)ncnc3c2)CC1 [saracatinib]
# Summary of the method: as §1
# sotrastaurin = compound: CN1CCN(c2nc(C3=C(c4c[nH]c5ccccc45)C(=O)NC3=O)c3ccccc3n2)CC1 [sotrastaurin]
# Summary of the method: as §1
Target,log2 fold change (vemurafenib),log2 fold change [1],log2 fold change (barasertib),log2 fold change [2],log2 fold change (volasertib),log2 fold change [3],log2 fold change [4],log2 fold change [5],log2 fold change (saracatinib),log2 fold change (sotrastaurin)
PSMC3IP (UniProt Q9P2W1),inactive: 0,inactive: 0.011,inactive: -0.01,inactive: 0.022,inactive: -0.004,inactive: 0.03,inactive: 0.029,inactive: -0.01,inactive: -0.005,inactive: -0.003
PSMA4 (UniProt P25789),inactive: 0,inactive: 0,inactive: -0.035,inactive: 0.013,inactive: 0.038,inactive: -0.012,inactive: -0.024,inactive: 0.022,inactive: -0.004,inactive: 0.023
PTCD3 (UniProt Q96EY7),inactive: 0.03,inactive: 0.012,inactive: 0.019,inactive: -0.006,inactive: -0.04,inactive: 0.04,inactive: 0.042,inactive: 0.021,inactive: -0.037,inactive: -0.027
PSMB3 (UniProt P49720),inactive: -0.005,inactive: -0.018,inactive: -0.079,inactive: -0.021,inactive: 0.043,inactive: -0.055,inactive: -0.024,inactive: 0.089,inactive: 0.001,inactive: 0.015
PSMD6 isoform 4 (UniProt Q15008),inactive: -0.016,inactive: 0,inactive: -0.033,inactive: 0.003,inactive: -0.014,inactive: 0.009,inactive: 0.001,inactive: -0.022,inactive: 0.003,inactive: -0.002
PSMA3 (UniProt P25788),inactive: -0.062,inactive: -0.019,inactive: -0.007,inactive: -0.029,inactive: 0.032,inactive: 0.034,inactive: -0.007,inactive: 0.071,inactive: 0.004,inactive: 0.003
PSME4 (UniProt Q14997),inactive: 0.044,inactive: 0.001,inactive: 0.038,inactive: -0.04,inactive: -0.056,inactive: 0.023,inactive: -0.169,inactive: 0.07,inactive: 0.023,inactive: 0.031
PUSL1 (UniProt Q8N0Z8),inactive: 0.114,inactive: -0.097,inactive: 0.077,inactive: -0.022,inactive: 0.029,inactive: -0.101,inactive: 0.023,inactive: 0.028,inactive: -0.223,inactive: -0.085
PUDP isoform 4 (UniProt Q08623),inactive: 0.033,inactive: -0.01,inactive: 0.181,inactive: 0.075,inactive: 0.007,inactive: -0.023,inactive: -0.047,inactive: 0.056,inactive: -0.042,inactive: -0.025
PSMC6 (UniProt P62333),inactive: -0.003,inactive: -0.01,inactive: -0.001,inactive: -0.051,inactive: -0.056,inactive: 0.028,inactive: 0.011,inactive: -0.012,inactive: 0.009,inactive: 0.008
PUS3 (UniProt Q9BZE2),inactive: 0.083,inactive: 0.036,inactive: 0.074,inactive: -0.058,inactive: -0.007,inactive: 0.071,inactive: 0.193,inactive: -0.195,inactive: 0.018,inactive: 0.052
PSMD4 (UniProt P55036),inactive: -0.002,inactive: 0.004,inactive: -0.038,inactive: 0.059,inactive: 0.001,inactive: -0.01,inactive: 0.046,inactive: 0.026,inactive: 0.007,inactive: 0.014
PTDSS1 (UniProt P48651),inactive: -0.111,inactive: 0.003,inactive: 0.06,inactive: -0.002,inactive: -0.084,inactive: 0.05,inactive: 0.011,inactive: -0.041,inactive: 0.049,inactive: -0.002
PSMB4 (UniProt P28070),inactive: 0.008,inactive: -0.019,inactive: -0.006,inactive: 0.011,inactive: 0.027,inactive: -0.001,inactive: -0.02,inactive: 0.053,inactive: -0.023,inactive: -0.016
PSMB1 (UniProt P20618),inactive: -0.018,inactive: 0.026,inactive: -0.031,inactive: 0.084,inactive: 0.016,inactive: -0.027,inactive: 0.006,inactive: 0.02,inactive: 0.048,inactive: -0.017
PRRC1 (UniProt Q96M27),inactive: -0.014,inactive: -0.002,inactive: 0.022,inactive: 0.064,inactive: 0.029,inactive: -0.027,inactive: -0.004,inactive: -0.005,inactive: 0.023,inactive: -0.01

Target,log2 fold change (vemurafenib),log2 fold change [1],log2 fold change (barasertib),log2 fold change [2],log2 fold change (volasertib),log2 fold change [3],log2 fold change [4],log2 fold change [5],log2 fold change (saracatinib),log2 fold change (sotrastaurin)
PUS10 (UniProt Q3MIT2),inactive: 0.026,inactive: 0.017,inactive: -0.003,inactive: 0.042,inactive: 0.022,inactive: -0.043,inactive: 0.045,inactive: -0.138,inactive: -0.014,inactive: 0.009
PTK2 (UniProt Q05397),inactive: 0.017,inactive: -0.091,inactive: -0.015,inactive: 0.352,inactive: 0.145,inactive: 0.044,inactive: -0.001,inactive: 0.056,inactive: -0.023,inactive: 0.039
PTPA (UniProt Q5T948),inactive: 0.05,inactive: 0.001,,,inactive: 0.121,inactive: 0.056,,,,
PSPC1 (UniProt Q8WXF1),inactive: -0.012,inactive: 0.005,inactive: 0.019,inactive: 0.011,inactive: 0.013,inactive: -0.01,inactive: 0.056,inactive: -0.041,inactive: 0.045,inactive: -0.013
PRUNE2 isoform 3 (UniProt Q8WUY3),inactive: 0.083,inactive: 0.047,inactive: 0.04,,inactive: 0.086,inactive: -0.135,,,inactive: 0.019,inactive: 0.035
PTP4A3 (UniProt O75365),inactive: 0.08,inactive: 0.038,,inactive: 0.026,inactive: -0.009,,,,inactive: -0.253,inactive: -0.037
PSMD14 (UniProt O00487),inactive: 0.001,inactive: 0,inactive: 0.082,inactive: -0.005,inactive: -0.032,inactive: 0.045,inactive: -0.012,inactive: -0.013,inactive: 0.005,inactive: -0.016
PSPH (UniProt P78330),inactive: 0.014,inactive: -0.021,inactive: -0.007,inactive: 0.017,inactive: 0.023,inactive: -0.037,inactive: -0.061,inactive: 0.044,inactive: -0.018,inactive: 0.006
PSMD1 (UniProt Q99460),inactive: -0.001,inactive: 0.029,inactive: -0.019,inactive: 0.005,inactive: -0.013,inactive: -0.012,inactive: -0.037,inactive: -0.005,inactive: -0.017,inactive: 0.025
PSMA3 (UniProt H0YJ03),inactive: -0.015,inactive: 0,,inactive: 0.13,inactive: 0.002,inactive: -0.046,,,inactive: 0.025,inactive: 0.017
PTPN6 isoform 4 (UniProt P29350),inactive: 0.02,inactive: -0.089,inactive: 0.081,active: -0.487,inactive: 0.014,inactive: 0.026,inactive: -0.038,inactive: -0.024,inactive: -0.046,inactive: 0.006
PSMC5 (UniProt P62195),inactive: -0.014,inactive: 0.008,inactive: -0.01,inactive: -0.058,inactive: -0.041,inactive: -0.021,inactive: 0.081,inactive: -0.037,inactive: -0.007,inactive: 0.017
PTK2B (UniProt Q14289),inactive: 0.001,inactive: -0.03,inactive: -0.013,inactive: 0.118,inactive: 0.022,inactive: -0.044,inactive: 0.001,inactive: 0.107,inactive: 0.019,inactive: 0.033
PRR3 (UniProt P79522),inactive: 0.021,inactive: -0.056,,,inactive: 0.113,,,,,inactive: 0.083
PTRH2 (UniProt Q9Y3E5),inactive: 0.01,inactive: -0.002,inactive: -0.027,inactive: 0.065,inactive: -0.022,inactive: 0.004,inactive: 0.145,inactive: 0.003,inactive: -0.021,inactive: -0.047

# Complete entries as entered above. Order of values: log2 fold change (vemurafenib)	log2 fold change [1]	log2 fold change (barasertib)	log2 fold change [2]	log2 fold change (volasertib)	log2 fold change [3]	log2 fold change [4]	log2 fold change [5]	log2 fold change (saracatinib)	log2 fold change (sotrastaurin)
# PSPH (UniProt P78330) is listed as inactive: 0.014	inactive: -0.021	inactive: -0.007	inactive: 0.017	inactive: 0.023	inactive: -0.037	inactive: -0.061	inactive: 0.044	inactive: -0.018	inactive: 0.006
# PUS10 (UniProt Q3MIT2) is listed as inactive: 0.026	inactive: 0.017	inactive: -0.003	inactive: 0.042	inactive: 0.022	inactive: -0.043	inactive: 0.045	inactive: -0.138	inactive: -0.014	inactive: 0.009

# — the supplement of paper PMC10849652
